# No constants are given. Whether binding was seen depends on the method and setting. Some results given as binding are weak or reduced against the parent protein; the word gives no strength.
# Protein sequences, listed by entry. Tags and fused reporters are not part of them.
# UniProt P62136: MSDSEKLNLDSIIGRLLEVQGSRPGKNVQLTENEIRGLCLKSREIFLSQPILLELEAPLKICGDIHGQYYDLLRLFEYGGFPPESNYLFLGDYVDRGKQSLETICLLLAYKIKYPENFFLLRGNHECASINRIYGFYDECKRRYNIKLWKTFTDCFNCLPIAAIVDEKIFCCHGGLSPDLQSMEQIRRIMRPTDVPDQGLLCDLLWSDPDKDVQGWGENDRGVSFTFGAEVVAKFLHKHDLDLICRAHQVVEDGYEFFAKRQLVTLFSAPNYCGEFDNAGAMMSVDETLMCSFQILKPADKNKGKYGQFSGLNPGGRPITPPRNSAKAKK
# Molecular target: recombinant protein phosphatase-1 catalytic subunit alpha (PP1cα) (UniProt P62136)
# Assay: saturation transfer difference NMR; 1.3-1.5 mM peptide with 13.3-14.4 µM rPP1cα or 14-15 µM rPP1cδ in D2O, 10 mM imidazole pH 6.5, 150 mM NaCl; 293 K; irradiation of PP1c resonances at -1.3 ppm; qualitative; both purified
binder,measurement,value
RQSRRSTQGVTL (phosphothreonine at 696 (pT696)),binding,binds

# Reference: paper PMC10003451, “Phosphorylated Peptide Derived from the Myosin Phosphatase Target Subunit Is a Novel Inhibitor of Protein Phosphatase-1” (International Journal of Molecular Sciences, 2023)
